PubChem BioAssay AID1159584 – Peter MacCallum Cancer Centre | 2016
Test: 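Knock-downs that harm CDH1-null cells more than parental MCF10A cells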 (primary screen). Cell system: human MCF10A breast epithelial cells, parental and CDH1-null. Knock-down reagent: siRNA against human genes. Measurement: 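Cell viability by CellTiter-Glo ATP luminescence, each line scaled to the mean of mock wells across plates, then CDH1-null over parental ratio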. Reading the numbers: CDH1-null / parental viability ratio: higher = CDH1-null cells survive relatively better than parental.
The deposit covers about 18,000 reagents; below is a part drawn at random. Further read-outs or replicates are left out here. Not given: the amount of reagent, the time to read-out.

| Target gene | CDH1-null / parental viability ratio |
| --- | --- |
| PGRMC2 (GeneID 10424) | 0.95 |
| PANX1 (GeneID 24145) | 1.16 |
| EMILIN3 (GeneID 90187) | 0.9 |
| OR10AG1 (GeneID 282770) | 0.98 |
| NIFK (GeneID 84365) | 1.04 |
| RANGRF (GeneID 29098) | 1.33 |
| MAGI1 (GeneID 9223) | 0.85 |
| OR5C1 (GeneID 392391) | 1.03 |
| BCL2L14 (GeneID 79370) | 1.08 |
| GOLGA1 (GeneID 2800) | 0.87 |
| CTPS2 (GeneID 56474) | 0.91 |
| LDLRAD3 (GeneID 143458) | 0.81 |
| KRT78 (GeneID 196374) | 1.02 |
| ZNF217 (GeneID 7764) | 1.19 |
| CADM1 (GeneID 23705) | 0.84 |
| TOPBP1 (GeneID 11073) | 1.01 |
| CALN1 (GeneID 83698) | 1.15 |
| PROP1 (GeneID 5626) | 0.97 |
| ENAH (GeneID 55740) | 1.13 |
| DNAJB6 (GeneID 10049) | 1.17 |
| FSCN2 (GeneID 25794) | 1.43 |
| NDUFA12 (GeneID 55967) | 1 |
| RALGDS (GeneID 5900) | 0.8 |
| STUM (GeneID 375057) | 0.83 |
| BTRC (GeneID 8945) | 1.01 |
| CLPSL2 (GeneID 389383) | 0.94 |
| GPR84 (GeneID 53831) | 1.43 |
| ADAMDEC1 (GeneID 27299) | 1.18 |

Reformatted: entries from further up.
Target gene	CDH1-null / parental viability ratio
CTPS2 (GeneID 56474)	0.91
LDLRAD3 (GeneID 143458)	0.81
KRT78 (GeneID 196374)	1.02
